{
  "sequences": {"note": "Chains of the proteins cited; added tags and fusions are not shown. Lines headed by an entry give the natural chain unless they say otherwise; changes in a name come on top. A line that says so, or that is headed by a name, gives the form on record, which may keep a tag or linker.", "UniProt P83949": "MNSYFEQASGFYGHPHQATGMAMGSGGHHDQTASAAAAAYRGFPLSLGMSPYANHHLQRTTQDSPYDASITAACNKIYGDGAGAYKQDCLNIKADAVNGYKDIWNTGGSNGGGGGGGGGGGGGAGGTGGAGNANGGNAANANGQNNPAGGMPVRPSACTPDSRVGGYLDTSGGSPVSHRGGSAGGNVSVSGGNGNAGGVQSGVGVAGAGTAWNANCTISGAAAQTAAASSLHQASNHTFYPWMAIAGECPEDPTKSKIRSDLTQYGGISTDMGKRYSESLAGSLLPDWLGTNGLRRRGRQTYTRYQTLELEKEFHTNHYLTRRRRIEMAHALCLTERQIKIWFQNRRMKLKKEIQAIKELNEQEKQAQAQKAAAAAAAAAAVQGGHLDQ", "UbxIb N103 Pro4 (P83949, form named)": "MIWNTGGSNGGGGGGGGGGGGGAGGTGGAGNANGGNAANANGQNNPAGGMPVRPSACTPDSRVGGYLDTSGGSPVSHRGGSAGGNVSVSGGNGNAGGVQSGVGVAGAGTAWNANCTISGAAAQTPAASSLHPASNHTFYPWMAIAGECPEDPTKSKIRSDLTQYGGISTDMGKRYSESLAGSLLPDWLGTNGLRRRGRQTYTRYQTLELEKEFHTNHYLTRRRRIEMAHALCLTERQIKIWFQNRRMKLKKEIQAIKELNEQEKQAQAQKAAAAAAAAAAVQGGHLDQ", "UbxIb Pro4 (P83949, form named)": "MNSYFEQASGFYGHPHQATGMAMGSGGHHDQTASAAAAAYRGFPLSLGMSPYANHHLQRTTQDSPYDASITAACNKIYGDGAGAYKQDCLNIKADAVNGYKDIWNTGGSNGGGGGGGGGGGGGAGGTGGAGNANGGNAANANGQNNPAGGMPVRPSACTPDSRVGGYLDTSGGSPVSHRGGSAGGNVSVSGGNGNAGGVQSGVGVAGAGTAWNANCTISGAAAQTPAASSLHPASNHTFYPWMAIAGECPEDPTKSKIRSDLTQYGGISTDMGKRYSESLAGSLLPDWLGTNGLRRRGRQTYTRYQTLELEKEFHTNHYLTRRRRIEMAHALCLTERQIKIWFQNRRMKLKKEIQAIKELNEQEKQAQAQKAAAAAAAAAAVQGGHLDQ", "UbxIb Δ103–216 (P83949, form named)": "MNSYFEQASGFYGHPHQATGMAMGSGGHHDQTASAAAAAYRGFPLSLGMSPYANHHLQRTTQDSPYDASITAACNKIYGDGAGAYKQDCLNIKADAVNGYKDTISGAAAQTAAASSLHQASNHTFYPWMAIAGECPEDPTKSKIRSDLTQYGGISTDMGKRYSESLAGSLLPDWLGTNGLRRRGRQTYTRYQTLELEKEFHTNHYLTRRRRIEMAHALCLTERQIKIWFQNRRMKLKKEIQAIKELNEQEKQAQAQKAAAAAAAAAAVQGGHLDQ"},
  "source": "paper PMC4186791",
  "binders": {"B1": {"name": "Cap-binding protein 1 (protein, UniProt Q7K4N3 1-800)", "chain": "MSRRRAHDTEDEGYDHRRNKRRRVSENQEIEDRLESLILRVGERSTSSVESNLEGLVSVLEADLGTFRLKILRILSDCAVRMPEKCTVYTTLVGLLNAKNYKFGGEFVDHMVKTFKESLKMCRWDAARYSLRFLADLVNCHVISATSLLQLLDTMIDVSNEDTVPQVRRDWFVFAVLSTLPWVGRDLYEKKESALESLLLRIEVYLNKRSKKHHNALRVWSSDAPHPQEEYLDCLWAQIRKLRQDNWAEKHIPRPYLVFDSILCEALQHNLPTIVPPPHHDNFEYPMPWVVYRMFDYTDCPDGPNLPGAHSIERFLIEEHLHHIIETYHHERKDCAAQLLSFPYKHKIPLEYCIVEVVFAELFHMPTPRYLDICYGSILIELCKLQPATLPQVLAQATEILFMRIDSMNTSCFDRFVNWFSYHLSNFKFTWSWDEWDSCLLLDGEHPRPKFIQEVLQKCLRLSYHQRITEMMPTTYAKLIPLTPVPNYKYANEEAANLPGTTVAHQLVVAIRQKCTPEEVVNILKDIPNSGYSGEEMSDGSFNALKIDVFVQTLLNLGSKSFSHSFAAISKFHSVFRALAETEEAQICILHNIFELWSSHQQMMVVLIDKLLKLQIVDCSAVATWIFSKEMTGEFTKLYLWEILHLTIKKMNKHVIKLNTELSEAKEKLAKADSSSSDSEDDSSHKRKKPITHADKPSEEVVERMEEKLEAANVNQKRLFLIVFQRFIMILSEHLLRSDTDGRDPDTDWYRWTIGRLQQVFLMHHEQVQKYSSTLETLLFTSDLDTHILEVFQQFVALRA"}, "B2": {"name": "Protease p44.5 subunit (protein, UniProt Q7KLV9 1-422)", "chain": "MAGATLFERAQALSSVNREEQDSSLLNKLVRDQEGAENDEERIRIKEQGILQQGELYKQEGKAKELADLIKVTRPFLSSISKAKAAKLVRSLVDMFLDMDAGTGIEVQLCKDCIEWAKQEKRTFLRQSLEARLIALYFDTALYTEALALGAQLLRELKKLDDKNLLVEVQLLESKTYHALSNLPKARAALTSARTTANAIYCPPKVQGALDLQSGILHAADERDFKTAFSYFYEAFEGFDSVDSVKALTSLKYMLLCKIMLGQSDDVNQLVSGKLAITYSGRDIDAMKSVAEASHKRSLADFQAALKEYKKELAEDVIVQAHLGTLYDTMLEQNLCRIIEPYSRVQVAHVAESIQLPMPQVEKKLSQMILDKKFSGILDQGEGVLIVFEETPVDKTYERVLETIQSMGKVVDTLYQKAKKLS"}, "B3": {"name": "Armadillo (protein, UniProt P18824 1-843)", "chain": "MSYMPAQNRTMSHNNQYNPPDLPPMVSAKEQTLMWQQNSYLGDSGIHSGAVTQVPSLSGKEDEEMEGDPLMFDLDTGFPQNFTQDQVDDMNQQLSQTRSQRVRAAMFPETLEEGIEIPSTQFDPQQPTAVQRLSEPSQMLKHAVVNLINYQDDAELATRAIPELIKLLNDEDQVVVSQAAMMVHQLSKKEASRHAIMNSPQMVAALVRAISNSNDLESTKAAVGTLHNLSHHRQGLLAIFKSGGIPALVKLLSSPVESVLFYAITTLHNLLLHQDGSKMAVRLAGGLQKMVTLLQRNNVKFLAIVTDCLQILAYGNQESKLIILASGGPNELVRIMRSYDYEKLLWTTSRVLKVLSVCSSNKPAIVDAGGMQALAMHLGNMSPRLVQNCLWTLRNLSDAATKVEGLEALLQSLVQVLGSTDVNVVTCAAGILSNLTCNNQRNKATVCQVGGVDALVRTIINAGDREEITEPAVCALRHLTSRHVDSELAQNAVRLNYGLSVIVKLLHPPSRWPLIKAVIGLIRNLALCPANHAPLREHGAIHHLVRLLMRAFQDTERQRSSIATTGSQQPSAYADGVRMEEIVEGTVGALHILARESHNRALIRQQSVIPIFVRLLFNEIENIQRVAAGVLCELAADKEGAEIIEQEGATGPLTDLLHSRNEGVATYAAAVLFRMSEDKPQDYKKRLSIELTNSLLREDNNIWANADLGMGPDLQDMLGPEEAYEGLYGQGPPSVHSSHGGRAFHQQGYDTLPIDSMQGLEISSPVGGGGAGGAPGNGGAVGGASGGGGNIGAIPPSGAPTSPYSMDMDVGEIDAGALNFDLDAMPTPPNDNNNLAAWYDTDC"}, "B4": {"name": "single α-α superhelix domain from Arm (amino acids 155–273) (domain or fragment, UniProt P18824 155-273)", "chain": "ELATRAIPELIKLLNDEDQVVVSQAAMMVHQLSKKEASRHAIMNSPQMVAALVRAISNSNDLESTKAAVGTLHNLSHHRQGLLAIFKSGGIPALVKLLSSPVESVLFYAITTLHNLLLH"}},
  "test_in_all_cases": "two-hybrid; LexA-Ubx variant (pLexA) and B42-partner (pB42) co-transformed into S. cerevisiae EGY48 carrying p8op-LacZ; blue/white colonies on X-gal and liquid β-galactosidase (ONPG) assay after galactose induction at 30°C, reported in Miller units",
  "key": {"[1]": {"biological_target": "UbxIb N103 Pro4 (Drosophila melanogaster) (UniProt P83949)"}, "[2]": {"biological_target": "UbxIb Pro4 (Drosophila melanogaster) (UniProt P83949)"}, "[3]": {"biological_target": "UbxIb Δ103–216 (Drosophila melanogaster) (UniProt P83949)"}},
  "note": "Results are given in words; binding and its absence hold for the method and conditions named. Some results given as binding are weak or reduced against the parent protein; the word gives no strength.",
  "data": [
    {"binder": "B1", "values": [
      {"measurement": "binding", "setting": "[1]", "result": "binds"},
      {"measurement": "binding", "setting": "[2]", "result": "binds"},
      {"measurement": "binding", "setting": "[3]", "result": "binds"}
    ]},
    {"binder": "B2", "values": [
      {"measurement": "binding", "setting": "[2]", "result": "binds"}
    ]},
    {"binder": "B3", "values": [
      {"measurement": "binding", "setting": "[1]", "result": "binds"},
      {"measurement": "binding", "setting": "[2]", "result": "binds"},
      {"measurement": "binding", "setting": "[3]", "result": "binds"}
    ]},
    {"binder": "B4", "values": [
      {"measurement": "binding", "setting": "[2]", "result": "binds"}
    ]}
  ]
}
